Paper PMC9171358
These are yes or no findings as the source states them, for the method shown. In cells and extracts the contact can be indirect. Some results given as binding are weak or reduced against the parent protein; the word gives no strength. For some assays here: Tags and fused reporters may be left off the sequences shown. Values belong to the binder of their own block, whether it stands above or below them.

Columns and labels:
Myc-MST2 = molecular target: T1, Myc-MST2 (UniProt Q13188); test: co-IP; anti-Myc immunoprecipitation of lysates of HEK293T cells transfected with Myc-MST2 and Flag-BRAP (or GFP); 20 mM Tris, 137 mM NaCl, 1% Triton X-100, pH 7.4; Protein A/G Sepharose beads, 4 °C
T1 sequence: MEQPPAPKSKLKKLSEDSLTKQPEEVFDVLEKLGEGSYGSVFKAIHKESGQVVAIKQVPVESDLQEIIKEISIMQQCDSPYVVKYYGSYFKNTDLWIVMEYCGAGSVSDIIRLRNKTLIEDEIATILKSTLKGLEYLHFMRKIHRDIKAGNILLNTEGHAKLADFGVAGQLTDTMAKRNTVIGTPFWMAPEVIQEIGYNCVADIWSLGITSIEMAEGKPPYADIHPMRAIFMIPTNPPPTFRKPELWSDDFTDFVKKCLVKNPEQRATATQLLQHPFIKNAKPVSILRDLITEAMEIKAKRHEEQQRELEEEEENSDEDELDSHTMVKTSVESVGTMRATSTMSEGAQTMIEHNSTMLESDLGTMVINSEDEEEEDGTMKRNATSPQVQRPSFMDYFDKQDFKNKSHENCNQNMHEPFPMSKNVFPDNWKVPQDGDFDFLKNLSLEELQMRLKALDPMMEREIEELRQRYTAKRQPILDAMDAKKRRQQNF

[1] = molecular target: T2, endogenous MST2 (human (endogenous in HEK293T)) (UniProt Q13188); test: co-IP; anti-MST2 antibody (or IgG control) immunoprecipitation of untransfected HEK293T cell lysates, endogenous proteins; 20 mM Tris, 137 mM NaCl, 1% Triton X-100, pH 7.4; Protein A/G Sepharose beads, 4 °C
T2 sequence: T1 sequence

binding (Myc-MST2): binds
B1: Flag-BRAP (BRCA1-associated protein) (protein, UniProt Q7Z569 1-592)
chain: MSVSLVVIRLELAEHSPVPAGFGFSAAAGEMSDEEIKKTTLASAVACLEGKSPGEKVAIIHQHLGRREMTDVIIETMKSNPDELKTTVEERKSSEASPTAQRSKDHSKECINAAPDSPSKQLPDQISFFSGNPSVEIVHGIMHLYKTNKMTSLKEDVRRSAMLCILTVPAAMTSHDLMKFVAPFNEVIEQMKIIRDSTPNQYMVLIKFRAQADADSFYMTCNGRQFNSIEDDVCQLVYVERAEVLKSEDGASLPVMDLTELPKCTVCLERMDESVNGILTTLCNHSFHSQCLQRWDDTTCPVCRYCQTPEPVEENKCFECGVQENLWICLICGHIGCGRYVSRHAYKHFEETQHTYAMQLTNHRVWDYAGDNYVHRLVASKTDGKIVQYECEGDTCQEEKIDALQLEYSYLLTSQLESQRIYWENKIVRIEKDTAEEINNMKTKFKETIEKCDNLEHKLNDLLKEKQSVERKCTQLNTKVAKLTNELKEEQEMNKCLRANQVLLQNKLKEEERVLKETCDQKDLQITEIQEQLRDVMFYLETQQKINHLPAETRQEIQEGQINIAMASASSPASSGGSGKLPSRKGRSKRGK

binding [1]: binds
B2: endogenous BRAP (protein, UniProt Q7Z569 1-592)
chain: B1 chain
